These results are taken from paper PMC7819943, “Rice protein-binding microarrays: a tool to detect cis-acting elements near promoter regions in rice”.

Chains of the proteins cited; added tags and fusions are not shown.
UniProt Q0JBA9, entry or part of it: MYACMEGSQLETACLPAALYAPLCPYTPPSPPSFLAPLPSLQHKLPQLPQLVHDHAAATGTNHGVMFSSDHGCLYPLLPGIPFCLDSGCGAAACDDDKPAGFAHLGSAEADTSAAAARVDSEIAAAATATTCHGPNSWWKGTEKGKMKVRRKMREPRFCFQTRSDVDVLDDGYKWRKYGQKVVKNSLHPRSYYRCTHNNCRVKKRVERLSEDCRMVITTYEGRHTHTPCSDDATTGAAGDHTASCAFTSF

The other results are listed elsewhere or left out.

The target of this experiment is OsWRKY34 (Oryza sativa, UniProt Q0JBA9 1-250). Nature of the experiment: protein-binding microarray (RPBM); PBS, 2% BSA, 51.3 ng/ul salmon testes DNA, 50 uM zinc acetate, 200 nM TF, 25 C, 1 h; high values mean tight binding. The following applies: protein: recombinant; tags: N-terminal polyhistidine and DsRed monomer fusion (pET32a); label: CyDye5-dUTP incorporated in the synthesized complementary strand; 3' TTTTT single-stranded linker to array surface; dsDNA, one strand shown. The essentials: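 For the binding signal, per-feature fluorescence intensity was read in arbitrary units on an Axon 4000B scanner. Before scanning, a 2% BSA-blocked custom Agilent array made double-stranded with Cy5-dUTP was washed after 1 h at 25 °C with 200 nM protein and 50 µM zinc acetate. The proteins were Ni–NTA-purified transcription factors with N-terminal polyhistidine and DsRed fusions, expressed in E. coli BL21-CodonPlus.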
“GCAAAGTTTGCCGTTTGTGTCTGTCTCACTCACAAATCACCGGAGTCACCTAGTGCAG”: the binding signal is 8260 fluorescence intensity (a.u.).
In the case of “GATCATTCCATGGTTTGGTTCCACCATTTGGACAGTCAACCGGAGTCACCTAGTGCAG”, the binding signal was 8200 fluorescence intensity (a.u.).
The figure for “CGACAACGCCGTTGCCCTTGTCTATTTCATCCTTTACTGTCGGAGTCACCTAGTGCAG” is 9800 fluorescence intensity (a.u.).
On to “TAGCAATAGCATTGAACCAAGCATGCCCACGGTCATATATCGGAGTCACCTAGTGCAG”, for which the binding signal was 8190 fluorescence intensity (a.u.).
The figure for “ATCAACCTCACGTCATGCCCGGATCGGATCGATGATCACACGGAGTCACCTAGTGCAG” is 8560 fluorescence intensity (a.u.); for “GAGCCATGGAACGCACGTGAGGTTTCGCTTTTGCCTGCACCGGAGTCACCTAGTGCAG” it is 8630 fluorescence intensity (a.u.); for “TATCCTTAATTTGTTTCTCCATTCTCTGATCTTATCTTTTCGGAGTCACCTAGTGCAG” it is 8440 fluorescence intensity (a.u.).
On to “GGCTTTTCGTGTCTTCTGTGTAAGGTTTTGCCGGTTTTCCCGGAGTCACCTAGTGCAG”, for which the binding signal was 9650 fluorescence intensity (a.u.).
The same measure for “CTTAACTCACTGTGAATGTGGTGACGTCTTTTTCCTCTTGCGGAGTCACCTAGTGCAG”: 10200 fluorescence intensity (a.u.); for “CGCCTTCCGGCCGTACGCGTCCCGCCGCTCCATGCCTGACCGGAGTCACCTAGTGCAG”: 8150 fluorescence intensity (a.u.); for “AACTGTATGCAATATATCCTCCTGTTCCTTTTCCCAGCTTCGGAGTCACCTAGTGCAG”: 10400 fluorescence intensity (a.u.).
The same measure for “CCTCCACCACCAATTTGGACTCTGCCGCTACGCCTCCTCCCGGAGTCACCTAGTGCAG”: 8430 fluorescence intensity (a.u.); for “ATGGTCAAACACGTACTTAAAAAATCATCGGTGTCAAACACGGAGTCACCTAGTGCAG”: 8870 fluorescence intensity (a.u.); for “CATGATATCTTCATTGTACATTTTTGTCACGCTCTCGTCACGGAGTCACCTAGTGCAG”: 9230 fluorescence intensity (a.u.).
The same measure for “ACCCGCACTGTGACCGGCCTTATATTAGACATTTTGCTCACGGAGTCACCTAGTGCAG”: 12100 fluorescence intensity (a.u.); for “CGTTGGAACGTGCGGGTGTGGGGAAACTGAGGGTGAGGATCGGAGTCACCTAGTGCAG”: 8600 fluorescence intensity (a.u.); for “TACGGTTTTTTTTGTTAGAGTGGCTTATCTAACCATCACTCGGAGTCACCTAGTGCAG”: 9840 fluorescence intensity (a.u.).
Regarding “AGGCCACCATGGTTTGATTCCCACCATCCTCATTCTTTTACGGAGTCACCTAGTGCAG”, the binding signal was 10100 fluorescence intensity (a.u.).
The figure for “CATTTACTTTTTAAAAACATTTTGCTATCTAAATTCGCGTCGGAGTCACCTAGTGCAG” is 9930 fluorescence intensity (a.u.); for “GATATAGTTGTTCCCTGTTTGTCATTTTTCGCATGCATAACGGAGTCACCTAGTGCAG” it is 13800 fluorescence intensity (a.u.).
As for “GCTCCCATCCGTACTACAGCATACGTGGCGGCATCTGTCCCGGAGTCACCTAGTGCAG”, the binding signal is 8240 fluorescence intensity (a.u.).
The same measure for “TTTCTTCCCTTAATTACATCACCGTTGGGCATAAAATAATCGGAGTCACCTAGTGCAG”: 9920 fluorescence intensity (a.u.); for “AAAGACTCTCCCGGTTCTTCTACCGTTCTACGCCACCAAACGGAGTCACCTAGTGCAG”: 8310 fluorescence intensity (a.u.); for “AAAGGTTAAACGTTTGTTAAAAGTCAACGCGTCATATATTCGGAGTCACCTAGTGCAG”: 10600 fluorescence intensity (a.u.).
The same measure for “GAACGCCGCCACCTACTCCCACTGCCACGTGGGCCCACATCGGAGTCACCTAGTGCAG”: 8330 fluorescence intensity (a.u.); for “CGCCCCGTCATCGCCGCGGCCGGCCACCGTCACCGCCACCCGGAGTCACCTAGTGCAG”: 9140 fluorescence intensity (a.u.); for “TCAAGGCACACTTCCTTTTGACTGAGTGTCCAGTTGTTGCCGGAGTCACCTAGTGCAG”: 8520 fluorescence intensity (a.u.).
The same measure for “TGGATTGGTGCTCGCTTTTTTTTTTCTCTCTCCTTTTTTCCGGAGTCACCTAGTGCAG”: 16300 fluorescence intensity (a.u.); for “GCAACCAACACGCGCACCACCACCTCGTCGAGCGCTCGGCCGGAGTCACCTAGTGCAG”: 9600 fluorescence intensity (a.u.); for “ATGTTAGTGGGCCCACATTTATGTTTTTTTAATTTTTATACGGAGTCACCTAGTGCAG”: 8180 fluorescence intensity (a.u.).
On to “GCTGTGGCGGAGGTGGGGAGGTGGAGGTGGAGGGGAGATGCGGAGTCACCTAGTGCAG”, for which the binding signal is 24600 fluorescence intensity (a.u.).
The same measure for “TCACTTTTTTTTCCATTCATTGTATGATTTCTTCTATTATCGGAGTCACCTAGTGCAG”: 10900 fluorescence intensity (a.u.); for “GAGGTTTTTTCTGACGGTTGTATCACAGGATCACACAGTACGGAGTCACCTAGTGCAG”: 11700 fluorescence intensity (a.u.); for “GGAGCTATTATTATTATTATATTATATTTTGAATGCTTTGCGGAGTCACCTAGTGCAG”: 8050 fluorescence intensity (a.u.).
“GGACGAGCGCGCGAGAATAATTGTGGTGTGCTTTGACCGGCGGAGTCACCTAGTGCAG”: the binding signal was 8300 fluorescence intensity (a.u.).
On to “GATATTTTGCTTGCTATGTTTGACTATTCGTCTTATTTTACGGAGTCACCTAGTGCAG”, for which the binding signal is 13500 fluorescence intensity (a.u.).
The figure for “CTGACCACCAACAGGGTCACTGTCGCGTTTGCTCGATACTCGGAGTCACCTAGTGCAG” is 9920 fluorescence intensity (a.u.); for “AGAATTATGTGTTTTTTATACCTTTATTTTTTTCGATCCTCGGAGTCACCTAGTGCAG” it is 9800 fluorescence intensity (a.u.); for “CCTCCTTTTTTGCTCTTTATTCCTTTGCCTACTTGCTGCTCGGAGTCACCTAGTGCAG” it is 13400 fluorescence intensity (a.u.).
The same measure for “CCAATTCTATCATACACACTATTCATTTCATTCTTTTTTTCGGAGTCACCTAGTGCAG”: 11000 fluorescence intensity (a.u.); for “ATATTTCTCAACACACGACTAGCAATTGGTTGTGTTTGACCGGAGTCACCTAGTGCAG”: 8210 fluorescence intensity (a.u.); for “GCCGCGTTCGCTTTCATGGTTTCCTGTACTACTAATACTACGGAGTCACCTAGTGCAG”: 10400 fluorescence intensity (a.u.).
